No constants are given. Whether binding was seen depends on the method and setting. Some entries that bind do so weakly or less than the wild type. Sequences can lack the tags named with a protein.
Columns and labels:
[1] = molecular target: GLP-1 receptor (GLP-1R) on rat insulinoma RINm5F cells (rat (RINm5F rat insulinoma cells)) (UniProt P32301); test: summary statement in Example 23, resting on the cell staining of Example 14
[2] = molecular target: GLP-1 receptor (GLP-1R) on rat insulinoma RINm5F cells (rat (RINm5F rat insulinoma cells)) (UniProt P32301); test: immunofluorescence staining of cells incubated with 10 µM Cal.GLP for 30 min at 37 °C, detected with rabbit polyclonal anti-calbindin D9k

Amino acid sequences for entries named in this document (tags omitted). Residues count along the entry.
UniProt P32301, residues 22-463: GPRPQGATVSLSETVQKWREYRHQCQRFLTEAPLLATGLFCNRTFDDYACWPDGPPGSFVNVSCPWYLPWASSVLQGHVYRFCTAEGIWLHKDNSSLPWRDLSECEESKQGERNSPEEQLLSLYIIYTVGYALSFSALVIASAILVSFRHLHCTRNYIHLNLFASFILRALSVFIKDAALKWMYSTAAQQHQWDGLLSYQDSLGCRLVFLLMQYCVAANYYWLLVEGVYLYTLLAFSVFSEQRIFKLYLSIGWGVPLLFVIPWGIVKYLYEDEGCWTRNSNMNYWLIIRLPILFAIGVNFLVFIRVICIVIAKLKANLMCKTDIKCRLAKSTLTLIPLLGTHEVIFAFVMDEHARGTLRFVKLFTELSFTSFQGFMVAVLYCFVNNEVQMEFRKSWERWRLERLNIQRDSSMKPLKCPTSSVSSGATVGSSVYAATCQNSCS

B1: Fusion Protein Cal.GLP (human Calbindin D9k-GLP-1 fusion protein) (designed binder)
chain: MSTKKSPEELKRIFEKYAAKEGDPDQLSKDELKLLIQAEFPSLLKGPNTLDDLFQELDKNGHAEGTFTSDVSSYLEGQAAKEFIAWLVKGRG
[1]
  binding: binds
[2]
  binding: binds

From patent US20120244080A1 (GEORGIA STATE UNIVERSITY RESEARCH FOUNDATION, published 2012)
